# Taken from: PubChem BioAssay AID1259323 (Peter MacCallum Cancer Centre, 2017)
# Purpose: 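Kinase siRNA screen linking the PAR2 receptor to the TRPV4 channel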 (primary screen)
# Cells: human HEK293 cells stably carrying inducible TRPV4
# Reagent: siRNA pool against human genes
# Challenge: PAR2 activation; agonist identity and dose not given
# Measurement: 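Signal of a calcium dye in live cells following PAR2 activation, plateau and early peak normalised to mock transfection on each plate, mean of duplicate plates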
# Scale: TRPV4 plateau calcium, % of mock: higher = stronger sustained TRPV4 calcium entry than mock; PAR2 peak calcium, % of mock: higher = stronger early PAR2 calcium response than mock
# Rule for the call: 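Active when sustained TRPV4 plateau calcium falls below 90% of mock while the early PAR2 peak remains above 79% of mock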
# Here is a random part of 715 reagents. Of all reagents, 91 (13%) got an active call. 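Active pools lower the sustained TRPV4 phase but spare the early PAR2 peak; PAR2 agonist and dose are not stated; pools repeat across wells.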 Unmarked entries are inactive. Some reagents were tested in more than one well and are listed for each. Not given: the amount of reagent, the time to read-out.
target,PubChem SID,"TRPV4 plateau calcium, % of mock","PAR2 peak calcium, % of mock"
MVK,SID336297376,111,106
SNRK,SID336297158,95.7,98.3
DAPK3,SID336297425,110,109
DGKA,SID336297345,105,103
OBSCN,SID336297186,107,105
STK38,SID336297552,102,102
MAP4K4,SID336297095,109,104
MAP3K4,SID336297475,96.7,93.5
ERBB4,SID336297574,97.4,97.8
ADCK5,SID336297451,94.3,104
CKMT2,SID336297330,93,91.6
CAMK2A,SID336297559,101,98.2
ULK4,SID336297570,105,102
AK2,SID336297673,98,96.4
VRK3,SID336297720,93.1,99.6
PIP4K2A,SID336297250,95.5,90.8
GRK1,SID336297118,113,103
RYK,SID336297349,97.1,93.5
KCNH8,SID336297105,106,103
PANK2,SID336297498,98.5,98.2
PFKP,SID336297167,108,106
DGUOK,SID336297485,100,100
BRSK1,SID336297159,92.2,88
BRSK1,SID336297159,94,95.1
RPS6KA6,SID336297433,105,109
ADK,SID336297071,101,100
BCKDK,SID336297215,97.7,100
HK3,SID336297385,113,111
MINK1,SID336297074,113,106
CALM3,SID336297126,91.8,103
DLG2,SID336297688,97.8,100
BRD3,SID336297065,86.5 (active),88.4
RELA,SID336297230,98.6,96.4
EPHA5,SID336297141,113,107
MOS,SID336297582,95.7,96.9
ACVR2A,SID336297332,97.9,99.7
CDKL3,SID336297075,104,96.5
MAPK11,SID336297452,99.9,101
NEK10,SID336297139,107,104
PFKFB4,SID336297575,108,104
HIPK3,SID336297283,101,98.6
LTK,SID336297470,108,102
NEK3,SID336297535,99.9,101
PFKFB2,SID336297757,102,99.3
ATP23,SID336297667,92.3,94.5
WNK2,SID336297055,115,104
SYK,SID336297050,97.7,99.3
DGKG,SID336297212,97.9,97.6
CHEK1,SID336297312,78.7,64.6
JAK1,SID336297736,93.4,96.8
NADK,SID336297448,101,101
CKS2,SID336297102,106,102
PKN2,SID336297258,98.8,96.9
RAF1,SID336297555,103,97.6
AKT1,SID336297157,118,115
CAMK2N1,SID336297187,107,101
PAK6,SID336297278,111,105
STK32C,SID336297595,100,98.7
CDK3,SID336297661,96.2,104
SRPK1,SID336297434,128,111
PIP4K2C,SID336297357,111,104
ACVR1B,SID336297307,109,102
STK17B,SID336297174,104,101
STK11,SID336297296,85.8 (active),81.8
PRKX,SID336297373,128,119
TESK1,SID336297572,88.8 (active),93
EPHB3,SID336297636,98,101
KSR1,SID336297094,130,112
MAPKAPK3,SID336297381,89.1 (active),104
PRKCZ,SID336297334,96.5,101
KDR,SID336297560,91.8,94.1
MYO3B,SID336297054,115,107
PTK7,SID336297431,111,105
DYRK1A,SID336297711,93.2,97.1
IRAK2,SID336297305,118,106
CRKL,SID336297593,102,101
MAP2K5,SID336297455,104,107
HIPK1,SID336297367,111,112
NTRK2,SID336297549,103,101
PIK3C3,SID336297738,85.8 (active),96.8
XYLB,SID336297606,105,106
GALK2,SID336297650,99,100
PIK3C2A,SID336297724,87.2 (active),92.9
CDKN1C,SID336297587,93.2,98.6
